Assay results: patent US20200207819A1 (SPIBER TECHNOLOGIES, published 2020)
Results are given in words; binding and its absence hold for the method and conditions named. Some entries that bind do so weakly or less than the wild type.

Target: T1, NTwt (wildtype N-terminal (NT) fragment of Euprosthenops australis major ampullate spidroin 1) (Euprosthenops australis)
T1 chain: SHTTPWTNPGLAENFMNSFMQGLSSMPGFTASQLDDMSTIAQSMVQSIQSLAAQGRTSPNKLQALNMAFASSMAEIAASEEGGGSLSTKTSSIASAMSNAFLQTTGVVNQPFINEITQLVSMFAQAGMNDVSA
Test: 2D [15N,1H]-HSQC NMR; homodimerization at pH 5.5
Details: remark: other sources report otherwise

B1: NTwt (wildtype N-terminal (NT) fragment of Euprosthenops australis major ampullate spidroin 1) (protein)
chain: T1 chain
- binding: binds
